# Test results from PubChem BioAssay AID493014 (National Center for Advancing Translational Sciences (NCATS), 2011).
# This is one part of the list. These are further read-outs of the screen, such as a control signal, another cell line or another target. No call is given for them. The list favours compounds with an active or inconclusive main result. Potencies come from curve fits of mixed quality, noted in brackets.
# Test: qHTS Assay to Find Inhibitors of Chronic Active B-Cell Receptor Signaling
# Details: ABC-DLBCL IkBa-CBG/CBR reporter, luminescence ratio (green luciferase fused to IkBa over red control in TMD8 lymphoma cells), 4 h
# Summary of the method: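 TMD8 ABC-DLBCL cells carrying doxycycline-inducible green luciferase fused to IkappaBalpha plus unfused red luciferase were exposed to compounds (up to 46 uM) for 4 hrs at 37C. Activity came from the overlap-corrected green/red luminescence ratio.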
# [1] = measured here: CBR red luminescence, cell number
# [2] = measured here: IkBa-CBG green luminescence
Compound,AC50 [1],AC50 [2]
O=C(NC1CC(=O)N(c2cccc(F)c2)C1)C(=O)c1c[nH]c2ccccc12 (stereo not drawn),"1.46 µM [falling, full curve]",
CCN1C(=O)/C(=C\c2nc3ccccc3c(=O)n2-c2ccccc2)c2ccccc21,"4.11 µM [rising, partial curve, poor fit]",
COc1cc2c(=O)n(Cc3ccco3)c(=O)n(CC(=O)c3cccc(Br)c3)c2cc1OC,"0.708 µM [falling, full curve, poor fit]",
O=C(CN1C(=O)NC2(CCOc3ccccc32)C1=O)Nc1cccc(Cl)c1 (stereo not drawn),"14.1 µM [falling, single point]",
COc1cc(Nc2nc(SCC(=O)c3ccc(Cl)c(Cl)c3)nc3ccccc23)cc(OC)c1,"5.62 µM [falling, single point]",
Cc1ccc(S(=O)(=O)Nc2ccc(O)c3cccnc23)cc1,"35.5 µM [falling, single point]",
CC(=O)C1=C(O)C(=O)N(c2ccc(Br)cn2)C1c1ccccc1[N+](=O)[O-] (stereo not drawn),"11.2 µM [falling, partial curve, poor fit]",
COc1cccc(NC(=O)CNC(=O)[C@@H]2Cc3ccccc3CN2C(=O)OC(C)(C)C)c1,"0.282 µM [falling, full curve, poor fit]",
C=CCN(Cc1cc(OC)ccc1OC)S(=O)(=O)N(C)C,"4.47 µM [rising, partial curve]",
C=CCn1c(=O)c2ccccc2n2c(=S)[nH]nc12,"6.31 µM [falling, single point]",
COc1ccccc1-c1nc2s/c(=C\c3cccs3)c(=O)n2n1,"20.6 µM [falling, partial curve, poor fit]",
CC(=O)OCC1(C)CN(c2ccccc2)N(C(=O)c2ccc(F)cc2)C1=O (stereo not drawn),"15.8 µM [falling, single point]",
CCOCCCNC(=O)/C(C#N)=C/c1ccc(Cl)c([N+](=O)[O-])c1,"12.6 µM [falling, partial curve]",
COc1cc(OC)cc(-c2cc3ncccc3cn2)c1,"20.6 µM [falling, single point]",
O=C(Nc1ccccc1C(=O)Nc1ccc(F)cc1)c1ccco1,"15.8 µM [falling, partial curve, poor fit]",
COc1cc(/C=C2\CCc3ccccc3C2=O)cc(OC)c1OC,"29.1 µM [falling, single point]",
O=C(Nc1nc(-c2ccccc2)cs1)c1cccnc1,"0.092 µM [falling, full curve, poor fit]",
COc1ccc(CC(=O)N[C@@H](CCSC)c2nc3ccccc3[nH]2)cc1,"0.794 µM [rising, full curve, poor fit]",
COc1cc(C(F)(F)F)nc2c(Br)c(C(C)(C)C)nn12,"0.1 µM [rising, full curve, poor fit]",
Clc1ccc(-c2noc(CCCc3ccccc3)n2)cc1,"13 µM [rising, partial curve, poor fit]",
Cc1cc(C)cc(N=Cc2c(O)c3ccccc3oc2=O)c1,"3.98 µM [falling, full curve, poor fit]",
CCOC(=O)c1ccc(Nc2nn3c(=O)c4ccccc4nc3s2)cc1,"0.562 µM [falling, full curve]","0.316 µM [rising, full curve, poor fit]"

Compound,AC50 [1],AC50 [2]
Cn1nnnc1Sc1ncnc2scc(-c3ccsc3)c12,"10.3 µM [falling, single point]",
COc1ccc(N2CCC(CNC(=O)Nc3ccc(C)c(C)c3)C2)cc1 (stereo not drawn),"16.4 µM [rising, partial curve]",
O=C(Nc1ccc(F)cc1)c1nc[nH]c1C(=O)O,"35.5 µM [falling, single point]",
c1ccc(CSc2nnc(-c3ccco3)c(-c3ccco3)n2)cc1,"2.06 µM [falling, partial curve, poor fit]",
O=C(Nc1ccc2c(c1)OCCO2)C1CCCN(S(=O)(=O)c2cnc[nH]2)C1 (stereo not drawn),"18.4 µM [falling, single point]",
Cn1c(=O)oc2cc(S(=O)(=O)Nc3ccc(F)cc3)ccc21,"5.01 µM [falling, partial curve]",
O=C(CCc1nc2ccccc2[nH]1)Nc1ccccc1,"32.6 µM [falling, partial curve, poor fit]",
CCCCCCCCCCCCCCCC[n+]1cccc2ccccc21,"25.9 µM [falling, single point]",
COCC(=O)Nc1nnc(Cc2ccc(OC)c(OC)c2)s1,"0.794 µM [falling, full curve]",
COc1ccc(Cl)cc1NC(=S)NCc1cccs1,"22.4 µM [falling, single point]",
CCOC(=O)C1CCN(S(=O)(=O)c2c(C)n[nH]c2C)CC1,"29.1 µM [rising, single point]",
Clc1ccc(/C=C\c2nccc3c2[nH]c2ccccc23)cc1,"35.5 µM [rising, single point]",
COc1cc(OC)c(OC)cc1CNc1cc(C)ccc1OC,"35.5 µM [falling, single point]",
CC(C)C(=O)N1N=C2CCCCC2C1(O)C(F)(F)F (stereo not drawn),"2.82 µM [rising, partial curve, poor fit]",
CC1=C[C@H]2OC(=O)[C@@H](C)[C@H]2C[C@@H]2[C@H]1C[C@@H](O)[C@@]2(C)O,"0.631 µM [rising, full curve, poor fit]",
Cc1nc2ccc(NC(=O)Cc3ccccc3F)cc2s1,"14.1 µM [falling, single point]",
Cc1c(CCC(=O)O)c(=O)oc2cc3occ(-c4ccc(Cl)cc4)c3cc12,"10 µM [rising, partial curve, poor fit]",
O=c1[nH]c(=S)[nH]c2nc(-c3cccs3)cc(C(F)(F)F)c12,"8.91 µM [falling, partial curve, poor fit]",
CN(C)S(=O)(=O)c1ccc(-n2cccc2)cc1,"12.6 µM [rising, partial curve, poor fit]",
CCOc1ccc(N(C)S(=O)(=O)c2ccc(-c3cc(C)no3)s2)cc1,,"35.5 µM [falling, single point]"
Cc1ccc(NC(=O)Nc2cccc(C(F)(F)F)c2)nc1,"1 µM [rising, full curve, poor fit]",
CCOC(=O)c1c(-c2cccs2)csc1NC(=O)C(C)(C)C,"7.31 µM [rising, partial curve]",

Compound,AC50 [1],AC50 [2]
Cc1cc(C(=O)N2CCc3c([nH]c4ccccc34)C2c2cccc(Cl)c2)nn1C (stereo not drawn),"35.5 µM [falling, single point]",
CCOC(=O)c1cc2sccc2n1CC(=O)N1CCCC1,"12.6 µM [rising, partial curve, poor fit]",
Cc1ccc(S(=O)(=O)CNC(=O)c2ccccc2)cc1,"14.1 µM [rising, partial curve, poor fit]",
COCCNC(=S)N/N=C(\C)c1ccc(Cl)c(Cl)c1Cl,"35.5 µM [falling, single point]","15.8 µM [falling, partial curve]"
COc1nc(N(CC(N)=O)S(=O)(=O)c2ccccc2)nc(C)c1Cl,"25.9 µM [falling, partial curve, poor fit]",
O=C1C2CC=CCC2C(=O)N1c1n[nH]c(-c2ccccc2)n1 (stereo not drawn),"9.2 µM [falling, partial curve, poor fit]",
COc1ccc(CCN2Cc3c(cccc3[N+](=O)[O-])C2=O)cc1OC,"28.2 µM [rising, single point]",
COc1ccccc1NC(=O)c1ccc(NS(C)(=O)=O)cc1,"4.61 µM [rising, partial curve, poor fit]",
COc1ccc(OC)c(NC(=O)C2CCCN2C(=O)OCc2ccccc2)c1 (stereo not drawn),"9.2 µM [falling, partial curve, poor fit]",
Cc1nn(-c2ccccc2)c(N)c1Sc1ccc([N+](=O)[O-])cc1,"29.1 µM [falling, single point]",
Cc1noc(NS(=O)(=O)c2ccc(NC(=O)CSc3nc4c(cc3C#N)CCCCC4)cc2)c1C,"2.91 µM [falling, full curve, poor fit]",
O=C(NCc1ccco1)c1ccc2c(=O)n(Cc3ccco3)c(SCC(=O)N3CCCC3)nc2c1,"3.55 µM [falling, partial curve, poor fit]",
Cc1ccc(NC(=O)C2(c3ccccc3)CCOCC2)cc1,"7.94 µM [rising, partial curve, poor fit]",
Cc1cc(NC(=O)CSC2=NS(=O)(=O)c3cc(Cl)ccc3N2)no1,"29.1 µM [falling, single point]",
CC(C)=NNc1nc(-c2ccccc2)c(C)s1,"22.4 µM [falling, single point]",
CCC(C)(C)C1CCC(=NNC(=O)c2ccc(Br)o2)CC1 (stereo not drawn),"9.2 µM [falling, single point]",
CCc1cccc(Nc2cc(C)nc3ncnn23)c1,"29.1 µM [rising, single point]","16.4 µM [falling, partial curve, poor fit]"
Cc1ccc(NC(=O)CC2Oc3ccccc3NC2=O)c(C)c1 (stereo not drawn),"1.84 µM [falling, single point]",
CC(=O)Oc1ccc2ccccc2c1C(NC(=O)C(C)C)c1cccc([N+](=O)[O-])c1 (stereo not drawn),"23.1 µM [falling, partial curve]",
Cc1ccc(N=Nc2c(C)[nH]n(C(N)=S)c2=O)cc1,"4.47 µM [falling, full curve]","1.78 µM [falling, full curve]"

# As entered above.
# Entry for Cc1cc(NC(=O)CSC2=NS(=O)(=O)c3cc(Cl)ccc3N2)no1 under AC50 [1]: 29.1 µM [falling, single point]
# Entry for COCCNC(=S)N/N=C(\C)c1ccc(Cl)c(Cl)c1Cl under AC50 [2]: 15.8 µM [falling, partial curve]
